This test concerns the target T1, CTP synthase (CTPS), HA-tagged, expressed from pAc5.1 CTPS-HA-T2A-If-V5 (Drosophila (cDNA from the w1118 line)) (UniProt Q9VUL1).
T1 sequence: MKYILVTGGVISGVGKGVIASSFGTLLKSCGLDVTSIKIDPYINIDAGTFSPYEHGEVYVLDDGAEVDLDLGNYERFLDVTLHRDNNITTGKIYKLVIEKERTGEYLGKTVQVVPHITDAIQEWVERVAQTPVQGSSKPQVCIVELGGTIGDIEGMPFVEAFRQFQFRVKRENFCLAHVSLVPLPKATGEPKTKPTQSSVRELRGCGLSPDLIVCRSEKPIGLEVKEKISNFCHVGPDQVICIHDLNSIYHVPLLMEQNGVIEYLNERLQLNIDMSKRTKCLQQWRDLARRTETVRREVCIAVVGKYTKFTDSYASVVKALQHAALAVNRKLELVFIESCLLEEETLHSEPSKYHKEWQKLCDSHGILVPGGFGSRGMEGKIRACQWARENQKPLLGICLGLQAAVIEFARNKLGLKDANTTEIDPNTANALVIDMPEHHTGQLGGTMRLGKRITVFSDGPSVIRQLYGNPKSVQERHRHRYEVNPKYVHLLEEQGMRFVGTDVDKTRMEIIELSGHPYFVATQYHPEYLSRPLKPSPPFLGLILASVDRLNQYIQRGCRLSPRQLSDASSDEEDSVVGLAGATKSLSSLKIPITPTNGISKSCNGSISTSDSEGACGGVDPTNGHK
In words: co-IP.

These are yes or no findings as the source states them, for the method shown. Binding seen in cells or lysates may run through a third protein. Some binding calls cover weakened binding; strength is not graded here. Tags and fused reporters may be left off the sequences shown.

B1: Integrin αPS2 subunit Inflated (If), V5-tagged, expressed from pAc5.1 CTPS-HA-T2A-If-V5 (receptor, UniProt P12080 32-1396)
chain: YNIDLPSYVRFRQSSNSMFGFSIAMHKGRSGFYGNQNNVSLIVGAPKFDTSRYQQGVTEAGGVFKCSLNDDDCKLVPFDSKGNNRNVDKEVVDRKSYQWLGATVATGRDSDLVVACAPRYVFHTMTPSRAFRIDPVGTCFTSHNFEEFYEVSPCRTNNWGYHRQGSCQAGFSAAINGNGSRLFIGAPGSWYWQGQTYSIPPDAKFPFKPPLYQPFGTGGMASSHDVTRPENQVFSTSESASVNDDSYLGYSMVTGDFDGDRSEDVAIGMPRGGNLVGRIVVNRWNMANIFNITGRQIGEYFGYSLATSDVDGDGLDDLLIGAPMYTDPDNVEGKYDVGRVYILLQGGPTEEKRWTTEHIRDGYHSKGRFGLALTTLGDVNGDGYGDFAVGAPYDGPEGRGVVYIFHGSPMGPLAKPSQIIKSEQLVEGAPYPRTFGFALSGGLDMDGNTYPDLAVGAYSSDQVFIFKSRPVAAVNAETSFASNSKLISLDDRSCQLVRDHKKVPCMLLTTCWSYTGRYLPEQLDFDVSWLLDAKKLLNPRMFFLRDEGKNIRNQTIRLNYGQKYCLNETVYLLDKVQDKLTPLEVEARYNLRSSRPLDPMVRHRRSILEPVIDQNREIVLRDAINIQKNCGPDNICEPDLKLKVSTVDKYLFGSPEPLVIEVFISNTNEDAFEAAFYMVTPPDLQFRKLQQLGEKKDTPITCSPPTPENNHTLKCDIGNPLESGKIAHFKISLVPEEKYGSSSSYDFYWEANSTNLEKPGSEYDNKIRQSVGIWVDTDLDIKGTSLPDYQLYKADDYKELENATKEDDIGPQVVHIYEIRNNRPSIIEEAEVFIHLPYETIVGDPLMYLLNQPETGGKIQCDDVAFNEYNLLLDEKLVKKSYLQAQGAIWNSAQVSGQSSSSSSSGGASVHIEKARGEGFVRGVLVSNSTDAGDKLSPKQVEQRRQEDTLEALGDASFVHRDRASQAVQEPQVNQTSFTTYSTSSSSSGSGAPSAQLRGHSTQGHIQMAGPVQHTSSSSSSNYRSWPAQQQQQHQQLLLAGSGGSGLGSPVTFNDKSQFGGRNNNFHTGTLDLGTLNRGNVDNELYRSQGQYQNPSQSLGQSQGQFQANANQGHYQGQNQAQFQARNPGFQGQTSYQGQTQYSGQPGGYQTHHVTYSSGSKPYYGRENEDFYDEDNLQQATPGHWSSSSSSSSSSGTRRLRRSNDKDGATEKPLQIDLNSPCQSARCKSIRCVVTNLGTEDGDAAFVAIRARMVAKTMEKLASNVPLNVSTLAVANVTLLPFIGAPKDAIVKTHEIFYKAEPEPLQVPDVVPLWVVVLAACAGALIFLLLVWLLYKCGFFNRNRPTDHSQERQPLRNGYHGDEHL
B1: the binding result is recorded as “binds”.

These data come from paper doi:10.1101/2021.12.02.470854.
